US10398755
Results are given in words; binding and its absence hold for the method and conditions named. Binding seen in cells or lysates may run through a third protein. Some results given as binding are weak or reduced against the parent protein; the word gives no strength.

Sequences of proteins named here, by UniProt entry; tags and fusion partners are left off. A change or cut given only in a name is not applied to a line headed by its entry. A line that says so, or that is headed by a name, gives the form on record, which may keep a tag or linker. Residues count along the entry.
UniProt P33434, residues 30-662: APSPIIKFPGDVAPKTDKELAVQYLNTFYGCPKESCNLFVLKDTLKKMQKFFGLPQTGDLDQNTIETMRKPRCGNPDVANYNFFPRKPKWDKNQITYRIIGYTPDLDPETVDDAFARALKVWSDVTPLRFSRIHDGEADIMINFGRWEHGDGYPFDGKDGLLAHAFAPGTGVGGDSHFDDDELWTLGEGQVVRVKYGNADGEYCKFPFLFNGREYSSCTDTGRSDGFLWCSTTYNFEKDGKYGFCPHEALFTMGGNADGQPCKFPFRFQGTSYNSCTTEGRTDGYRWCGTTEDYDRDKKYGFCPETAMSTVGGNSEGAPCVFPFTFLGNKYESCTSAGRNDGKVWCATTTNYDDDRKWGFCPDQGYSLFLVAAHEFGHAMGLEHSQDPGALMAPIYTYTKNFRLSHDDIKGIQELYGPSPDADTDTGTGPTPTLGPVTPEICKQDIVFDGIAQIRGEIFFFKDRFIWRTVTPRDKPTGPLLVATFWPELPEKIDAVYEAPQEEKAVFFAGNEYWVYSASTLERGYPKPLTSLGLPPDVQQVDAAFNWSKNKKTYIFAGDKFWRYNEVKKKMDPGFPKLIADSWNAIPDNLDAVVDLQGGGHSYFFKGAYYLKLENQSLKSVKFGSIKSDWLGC
UniProt P41245, residues 20-730: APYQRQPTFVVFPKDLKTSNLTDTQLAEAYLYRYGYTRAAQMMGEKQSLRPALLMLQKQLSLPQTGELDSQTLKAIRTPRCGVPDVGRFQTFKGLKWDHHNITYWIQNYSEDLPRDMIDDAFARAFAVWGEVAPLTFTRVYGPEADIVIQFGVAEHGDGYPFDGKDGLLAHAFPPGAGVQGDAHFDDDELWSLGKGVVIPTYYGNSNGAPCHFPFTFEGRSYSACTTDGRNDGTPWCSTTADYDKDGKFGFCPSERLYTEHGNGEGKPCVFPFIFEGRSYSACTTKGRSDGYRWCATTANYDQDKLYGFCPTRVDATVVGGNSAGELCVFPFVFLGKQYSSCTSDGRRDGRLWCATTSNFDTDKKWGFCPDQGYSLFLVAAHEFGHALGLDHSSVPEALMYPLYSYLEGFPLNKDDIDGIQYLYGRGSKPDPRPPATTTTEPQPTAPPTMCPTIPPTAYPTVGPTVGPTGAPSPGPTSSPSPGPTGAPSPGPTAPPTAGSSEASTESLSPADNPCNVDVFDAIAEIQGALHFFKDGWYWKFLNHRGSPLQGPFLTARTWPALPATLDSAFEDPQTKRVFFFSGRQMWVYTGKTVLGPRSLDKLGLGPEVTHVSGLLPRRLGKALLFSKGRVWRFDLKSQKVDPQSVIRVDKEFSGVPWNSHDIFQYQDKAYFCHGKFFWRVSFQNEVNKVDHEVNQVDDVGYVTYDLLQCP
mouse CLU with a C-terminal Myc tag (CLU-Myc), full length cDNA expressed in HEK293 cells (Q06890, residues 22-448): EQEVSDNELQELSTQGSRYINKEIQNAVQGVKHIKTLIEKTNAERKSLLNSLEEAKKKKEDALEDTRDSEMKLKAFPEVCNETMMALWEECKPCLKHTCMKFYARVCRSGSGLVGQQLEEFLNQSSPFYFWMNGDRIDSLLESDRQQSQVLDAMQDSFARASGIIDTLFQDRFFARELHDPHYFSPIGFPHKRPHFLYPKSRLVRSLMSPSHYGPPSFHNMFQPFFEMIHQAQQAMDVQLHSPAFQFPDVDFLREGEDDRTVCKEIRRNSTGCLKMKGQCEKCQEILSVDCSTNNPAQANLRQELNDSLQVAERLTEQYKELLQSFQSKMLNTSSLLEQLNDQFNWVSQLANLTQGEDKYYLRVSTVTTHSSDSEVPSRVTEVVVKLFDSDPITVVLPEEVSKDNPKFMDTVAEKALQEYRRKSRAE
mouse CLU with C-terminal (His)6 (CLU-His), recombinant secreted clusterin (Q06890, form named): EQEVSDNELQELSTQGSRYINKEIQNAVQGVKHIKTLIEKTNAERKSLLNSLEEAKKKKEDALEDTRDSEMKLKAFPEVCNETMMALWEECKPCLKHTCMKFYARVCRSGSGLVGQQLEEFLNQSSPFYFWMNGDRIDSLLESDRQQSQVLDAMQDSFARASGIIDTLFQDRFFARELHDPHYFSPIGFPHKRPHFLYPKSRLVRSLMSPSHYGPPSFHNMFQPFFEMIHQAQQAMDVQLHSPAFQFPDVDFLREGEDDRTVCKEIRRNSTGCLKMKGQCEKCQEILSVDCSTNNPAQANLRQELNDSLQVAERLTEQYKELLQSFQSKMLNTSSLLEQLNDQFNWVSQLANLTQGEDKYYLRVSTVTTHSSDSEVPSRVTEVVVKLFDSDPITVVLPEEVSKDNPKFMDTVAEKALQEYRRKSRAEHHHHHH

Tests used:
[1] = molecular target: MMP-2, mouse recombinant protein secreted from NS0 cells (as used in Example 1) (mouse) (UniProt P33434); assay: pull-down with His-tagged CLU, gelatin zymography (FIG. 7)
[2] = molecular target: MMP-9, mouse recombinant protein secreted from NS0 cells (as used in Example 1) (mouse) (UniProt P41245); assay: as above
[3] = molecular target: MMP-2, mouse recombinant protein secreted from NS0 cells (as used in Example 1) (mouse) (UniProt P33434); assay: pull-down with His-tagged CLU and anti-His tag antibody resin, 150 mM NaCl, gelatin zymography
[4] = molecular target: MMP-9, mouse recombinant protein secreted from NS0 cells (as used in Example 1) (mouse) (UniProt P41245); assay: as above
[5] = molecular target: mouse MMP-9 with a C-terminal HA tag (MMP-9-HA), full length cDNA expressed in HEK293 cells (mouse) (UniProt P41245); assay: co-immunoprecipitation from transfected HEK293 lysates (FIG. 2A)
[6] = molecular target: mouse MMP-9 with a C-terminal HA tag (MMP-9-HA), full length cDNA expressed in HEK293 cells (mouse) (UniProt P41245); assay: co-immunoprecipitation from transfected HEK293 lysates: anti-HA IP, anti-Myc immunoblot

Measured: binding

mouse CLU with C-terminal (His)6 (CLU-His), recombinant secreted clusterin (from UniProt Q06890 22-448)
binds: [1] | [2] | [3] | [4]

mouse CLU with a C-terminal Myc tag (CLU-Myc), full length cDNA expressed in HEK293 cells (from UniProt Q06890 22-448)
binds: [5] | [6]
